Experimental data taken from US7078174.
No constants are given. Whether binding was seen depends on the method and setting. Binding seen in cells or lysates may run through a third protein. Some entries that bind do so weakly or less than the wild type. For some of these results: Tags and fused reporters may be left off the sequences shown. Each block holds one binder with its values, some of them ahead of it.

The chains behind the UniProt entries cited, without tags or fusion partners. Where a name states a change or a piece, a line headed by the entry shows the natural chain unless it says otherwise. A line that says so, or that is headed by a name, gives the form on record, which may keep a tag or linker.
UniProt P83940: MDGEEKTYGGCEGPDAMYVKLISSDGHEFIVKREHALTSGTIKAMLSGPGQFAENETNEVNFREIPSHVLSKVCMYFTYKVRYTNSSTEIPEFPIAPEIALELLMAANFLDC
elongin C containing a myc epitope (P83940, form named): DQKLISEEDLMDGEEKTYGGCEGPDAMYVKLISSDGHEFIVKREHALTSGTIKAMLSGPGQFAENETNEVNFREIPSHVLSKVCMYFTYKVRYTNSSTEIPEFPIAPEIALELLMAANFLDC

Legend:
[1] = target: elongin C (endogenous, murine M1 cells) (murine) (UniProt P83940); test: competition pull-down; competitor of immobilized biotinylated SOCS-1 SOCS box peptide
[2] = target: elongin C (endogenous, murine M1 cells) (murine) (UniProt P83940); test: competition pull-down from M1 extracts, 80 mM (so in the source) competing peptide, SDS-PAGE and silver stain
[3] = target: elongin C containing a myc epitope (mouse) (UniProt P83940); test: co-immunoprecipitation with anti-myc from transfected 293T cells, Western blot with anti-FLAG

binding [1]: binds
binding [2]: binds
B1: WSB-2 SOCS box peptide (peptide, UniProt O54929 361-404, looked up)
peptide: TAPRVLSSLKHLCRKALRSFLTTYQVLALPIPKKMKEFLTYRTF

binding [3]: binds
B2: N-terminally FLAG-tagged WSB-2 (protein)
chain: DYKDDDDKMEAGEEPLLLAELKPGRPHQFDWKSSCETWSVAFSPDGSWFAWSQGHCVVKLVPWPLEEQFIPKGFEAKSRSSKNDPKGRGSLKEKTLDCGQIVWGLAFSPWPSPPSRKLWARHHPQAPDVSCLILATGLNDGQIKIWEVQTGLLLLNLSGHQDVVRDLSFTPSGSLILVSASRDKTLRIWDLNKHGKQIQVLSGHLQWVYCCSISPDCSMLCSAAGEKSVFLWSMRSYTLIRKLEGHQSSVVSCDFSPDSALLVTASYDTSVIMWDPYTGERLRSLHHTQLEPTMDDSDVHMSSLRSVCFSPEGLYLATVADDRLLRIWALELKAPVAFAPMTNGLCCTFFPHGGIIATGTRDGHVQFWTAPRVLSSLKHLCRKALRSFLTTYQVLALPIPKKMKEFLTYRTF

binding [3]: binds
B3: N-terminally FLAG-tagged SSB-1 (protein, mouse)
chain: DYKDDDDKMGQKVTGGIKTVDMRDPTYRPLKQELQGLDYCKPTRLDLLLDMPPVSYDVQLLHSWNNNDRSLNVFVKEDDKLIFHRHPVAQSTDAIRGKVGYTRGLHVWQITWAMRQRGTHAVVGVATADAPLHSVGYTTLVGNNHESWGWDLGRNRLYHDGKNQPSKTYPAFLEPDETFIVPDSFLVALDMDDGTLSFIVDGQYMGVAFRGLKGKKLYPVVSAVWGHCEIRMRYLNGLDPEPLPLMDLCRRSVRLALGKERLGAIPALPLPASLKAYLLYQ
